Each structure is given as a SMILES string. This is a selection; strong and weak results do not stand in their true shares. Activity calls are given as the source filed them. The call rests on the fitted dose curve; in most records, active means well fitted inhibition curve with a large enough effect; inconclusive means small, poorly fitted or top-dose-only effect; inactive means no such curve, though single readings can be large or run the other way.
Potency means the concentration at half of the fitted maximal effect.

The chains behind the UniProt entries cited, without tags or fusion partners. Where a name states a change or a piece, a line headed by the entry shows the natural chain unless it says otherwise.
UniProt P17405: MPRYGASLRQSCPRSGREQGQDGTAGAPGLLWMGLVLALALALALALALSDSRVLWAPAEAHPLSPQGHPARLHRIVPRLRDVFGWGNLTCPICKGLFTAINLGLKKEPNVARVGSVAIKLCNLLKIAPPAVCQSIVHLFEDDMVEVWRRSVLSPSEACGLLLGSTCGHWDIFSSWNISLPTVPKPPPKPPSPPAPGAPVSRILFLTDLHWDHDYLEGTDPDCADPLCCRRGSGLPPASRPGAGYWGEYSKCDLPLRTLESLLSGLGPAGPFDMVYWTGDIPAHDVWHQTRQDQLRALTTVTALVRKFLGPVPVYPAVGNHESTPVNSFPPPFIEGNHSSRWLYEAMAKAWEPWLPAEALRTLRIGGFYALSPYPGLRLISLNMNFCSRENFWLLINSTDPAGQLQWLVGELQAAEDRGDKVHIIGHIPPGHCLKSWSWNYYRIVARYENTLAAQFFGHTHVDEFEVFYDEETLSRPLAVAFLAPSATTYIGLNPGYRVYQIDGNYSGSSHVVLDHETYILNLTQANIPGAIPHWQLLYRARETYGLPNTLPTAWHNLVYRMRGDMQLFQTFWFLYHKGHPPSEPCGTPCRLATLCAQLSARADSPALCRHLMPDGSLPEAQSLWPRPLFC

The target of the test is Sphingomyelin phosphodiesterase (Homo sapiens) (UniProt P17405). The test is described as follows: Inhibitors of Secretory Acid Sphingomyelinase (S-ASM): qHTS. Conditions: placental ASM, HMU-PC fluorogenic substrate (series up to 57.5 µM), 60 min. From the text:
Atherosclerosis is the underlying process for cardiovascular disease and thus is a major contributor to disease burden in the population. […] Thus, selective small molecule inhibitors of S-ASM should block LDL modification and reduce aortic LDL retention and may serve as new agents for the treatment of atherosclerosis. In a collaboration between National Heart, Lung, and Blood Institute and the NCGC a high-throughput amenable screen was developed to identify potent and selective small molecule inhibitors of S-ASM. This enzymatic, fluorescent screen uses an ASM enzyme preparation derived from human placenta and was tested against the NIH Molecular Libraries Small Molecule Repository (MLSMR). NIH Chemical Genomics Center [NCGC] NIH Molecular Libraries Probe Centers Network [MLPCN] MLPCN Grant: MH093173-01 Assay Submitter (PI): Alan Remaley, National Heart, Lung, and Blood Institute and Wei Zhen, NIH Chemical Genomics Center
Two microliters of ASM enzyme (1:150 dilution from stock) are dispensed in 1536-well plate. 23 nL of compound and control are pinned into assay plate using the Kalypsys pintool. The plates are then incubated for 10 minutes at ambient room temperature. Then, 2 uL of the flurogenic substrate, HMU-PC0, (9 uM final) are added to the plate. […] Plate is read on ViewLux, with detection set at Ex = 386 (10) nm and Em = 447 (10) nm.
A general note: qHTS replaces the single test concentration by a dilution series.
Regarding `CCCCc1oc2ccccc2c1C(=O)c1cc(I)c(OCCN(CC)CC)c(I)c1`, the Potency was active: 39.8 µM.
